For the assay, the target named is TgGRA14 endogenously epitope-tagged at the C-terminus with 6x-HA (ME49Δku80 GRA14-HA6x) (Toxoplasma gondii (ME49, type II)). Nature of the assay: co-IP; anti-HA immunoprecipitation from lysates of infected cultures (ME49Δku80 GRA14-HA6x against untagged control), immunoblot of the immunoprecipitation samples. In general terms: In western blotting, separated proteins are transferred to a membrane and probed.

Results are given in words; binding and its absence hold for the method and conditions named. In cells and extracts the contact can be indirect. A result given as binding can be weak or reduced; the word gives no strength.

B1: TgGRA4 (protein, UniProt Q27002 21-345)
chain: GECSFGSHLADMAGLSGRHDKERHQAKKRYYHSMYGNQTPYPYANGQQASPPPQGQLLIIQNPDGSFMIVDQQGVPQVPQAAGGPGSPMNGGYYMPTGVYTAQVVPGTPGHPVQAIPQQPLRTQATATYYHPAAVPPPGPSVFVFTPSSVQPGAEVTPGYSGLQLRQQSQYGYSYPGTTSTPTPPPPASYGYPVFPAFPRLPAFSDSVSVSTEDSGLTGVKDSSSSESTVTPADEAASESEEGDKTSRKSKVKKGILTGLGVAATLAAAAAAAKAVKGFGGTRTSTAPAEAGKTELDDGYRPPPFNPRPSPYAELLKDLERMRKE
Take B1: the binding entry is “binds”.

B2: TgGRA1 (protein, UniProt P13403 25-190)
chain: AEGGDNQSSAVSDRASLFGLLSGGTGQGLGIGESVDLEMMGNTYRVERPTGNPDLLKIAIKASDGSYSEVGNVNVEEVIDTMKSMQRDEDIFLRALNKGETVEEAIEDVAQAEGLNSEQTLQLEDAVSAVASVVQDEMKVIDDVQQLEKDKQQLKDDIGFLTGERE
On to B2, for which the binding result is reported as “binds”.
